Results: PubChem BioAssay AID2551 (National Center for Advancing Translational Sciences (NCATS), 2010)
The whole screen tested about 310,000 compounds, of which about 17,000 (5.5%) were called active. This list was built around the results that the source calls inconclusive (neither active nor inactive); the mix of calls is not that of the screen. Calls follow the shape of the dose curve; as a rule, active = well fitted inhibition curve with a large enough effect; inconclusive = small, poorly fitted or top-dose-only effect, or effect the other way; inactive = no such curve, though single readings can be large or run the other way. Where the call is inconclusive, the potency comes from a doubtful curve fit.

The chains behind the UniProt entries cited, without tags or fusion partners. Where a name states a change or a piece, a line headed by the entry shows the natural chain unless it says otherwise.
UniProt P51450: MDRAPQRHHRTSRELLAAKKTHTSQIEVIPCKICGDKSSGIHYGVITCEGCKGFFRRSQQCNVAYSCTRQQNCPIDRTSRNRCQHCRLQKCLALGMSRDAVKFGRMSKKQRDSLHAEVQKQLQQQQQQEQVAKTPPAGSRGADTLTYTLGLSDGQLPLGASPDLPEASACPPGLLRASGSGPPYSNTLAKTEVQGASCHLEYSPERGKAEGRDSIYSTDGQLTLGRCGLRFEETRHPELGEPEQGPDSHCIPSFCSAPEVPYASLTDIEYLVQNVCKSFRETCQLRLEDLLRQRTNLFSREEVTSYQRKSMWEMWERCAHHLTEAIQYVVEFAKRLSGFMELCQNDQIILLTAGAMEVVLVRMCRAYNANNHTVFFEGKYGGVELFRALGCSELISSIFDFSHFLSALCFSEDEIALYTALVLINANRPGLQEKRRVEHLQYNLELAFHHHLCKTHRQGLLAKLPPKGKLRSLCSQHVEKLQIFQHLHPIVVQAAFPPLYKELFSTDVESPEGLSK

Molecular target: Nuclear receptor ROR-gamma (Mus musculus) (UniProt P51450)
Assay: qHTS for inhibitors of ROR gamma transcriptional activity; also: nearly all actives have a fitted effect of over 60% in size
Settings: Drosophila S2 Gal4-RORgamma UAS-luciferase reporter, 20 h; series mostly up to 53.6 µM
Procedure, shortened: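 Drosophila Schneider cells stably carrying a metallothionein-driven Gal4 DBD–ROR gamma fusion and a UAS-Photinus luciferase reporter were exposed to compound for 1 hr, then induced with copper sulfate (700 uM final) for 20 hr at ambient temperature before luminescence reading.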
Potency is read from the fitted curve at half-maximal effect.

SMILES	Potency
COc1ccc(-c2noc(C3CCCN(C(=O)CCc4ccccc4)C3)n2)cc1 (stereo not drawn)	inconclusive: 10 µM [activator, partial curve]
COc1ccc2cc(CCC(C)=O)ccc2c1	inconclusive: 12.6 µM [activator, partial curve, poor fit]
S=c1[nH]nc(C2CCCCC2)n1/N=C/c1ccncc1	inconclusive: 35.5 µM [inhibitor, single point]
O=S(=O)(NCC1CCCO1)c1ccc(S(=O)(=O)N(Cc2ccc(F)cc2)Cc2ccco2)cc1 (stereo not drawn)	inconclusive: 14.1 µM [activator, single point]
COc1ccccc1/C=C/C1(C(=O)NC2CCCC2)CC(=O)N1c1ccc(C)cc1 (stereo not drawn)	inconclusive: 14.1 µM [activator, partial curve, poor fit]
CC(C)C1NC(=S)N(Cc2ccccc2)C1=O (stereo not drawn)	inconclusive: 17.8 µM [inhibitor, partial curve, poor fit]
CCCCCOCC1CC(C/C(C)=N/Nc2nc(-c3ccccc3)cs2)C(=O)O1 (stereo not drawn)	inconclusive: 35.5 µM [inhibitor, single point]
Cc1cc(C)n(-c2ccc(C(=O)Nc3cccc(S(=O)(=O)N4CCCC4)c3)cc2)n1	inconclusive: 6.31 µM [activator, single point]
Cc1ccccc1NC(=S)NC(NC(=O)COc1ccccc1)C(Cl)(Cl)Cl (stereo not drawn)	inconclusive: 22.4 µM [inhibitor, single point]
COc1ccc(CNC(=O)CSc2nnc(-c3ccc(NC(C)=O)cc3)n2C)cc1	inactive
O=C(Nc1ccccc1C(=O)N/N=C/c1ccco1)c1ccc(Cl)cc1	active: 2.82 µM
Cc1nnc(NC(=O)c2nc(S(=O)(=O)Cc3ccccc3C)ncc2Cl)s1	active: 3.55 µM
C#CCOCCOCCOCCNc1nc(N2CCN(C(=O)[C@H]([C@@H](C)CC)n3cc(CCCN=C(N)N)nn3)CC2)nc(N2CCN(C(=O)[C@H](Cc3ccc(O)cc3)n3cc(CCO)nn3)CC2)n1	inactive
CCn1c(CCNC(=O)c2cccs2)nnc1SCC(=O)Nc1nc(-c2ccccc2)cs1	inconclusive: 8.91 µM [activator, partial curve]
COc1ccc2sc(C)[n+](C)c2c1	inactive
CC(=O)c1sc(C(C)(C)C)cc1NC(=O)c1ccccc1C(=O)O	inconclusive: 35.5 µM [activator, single point]
Nc1cc(=O)[nH]c(SCCOc2ccccc2)n1	inactive
O=C(Nc1ccc(Nc2ccncc2)cc1)c1ccc([N+](=O)[O-])cc1	inconclusive: 12.6 µM [inhibitor, single point]
COc1cccc(N(C(=O)c2snc(C(N)=O)c2N)C(C(=O)NCC2CCCO2)c2cccs2)c1 (stereo not drawn)	inconclusive: 11.2 µM [activator, partial curve]
O=C(Nc1cc(C(F)(F)F)ccc1Cl)C(Sc1nnc(-c2cccs2)o1)c1ccccc1 (stereo not drawn)	active: 11.2 µM
CN[C@H](C)CCC=C(C)C	inactive
CC(NS(=O)(=O)c1ccc(OCC(=O)Nc2cccc([N+](=O)[O-])c2)cc1)c1ccccc1 (stereo not drawn)	inconclusive: 20 µM [inhibitor, single point]
CCCOc1ccc(C(=O)NC(=S)NNC(=O)c2c(-c3ccccc3)noc2C)cc1	active: 3.98 µM

SMILES	Potency
O=c1[nH]n2c(C(F)(F)F)cc(C3CC3)nc2c1N=Nc1ccccc1	inconclusive: 7.08 µM [inhibitor, partial curve]
COc1ccc(OCCCC(=O)Nc2cccc([N+](=O)[O-])c2)cc1	inconclusive: 35.5 µM [activator, single point]
O=C(NCc1ccccc1Cl)C1CCC(=O)N(CC2CCCCC2)C1 (stereo not drawn)	inactive
O=C(N/N=C\c1ccc(F)cc1)c1ccc(Cn2cc(Br)c([N+](=O)[O-])n2)o1	inconclusive: 15.8 µM [activator, single point]
O=C(N=C1c2ccccc2CN1c1ccccc1)c1cccc([N+](=O)[O-])c1	inconclusive: 2.82 µM [activator, full curve, poor fit]
CCOC(=O)c1ccc(NC(=S)N(CCN(C)C)Cc2cccs2)cc1	inconclusive: 35.5 µM [inhibitor, single point]
CCn1nc(C(=O)N[C@@H](CCSC)c2nc3ccccc3[nH]2)c2ccccc2c1=O	inconclusive: 14.1 µM [activator, single point]
COC(=O)c1nnn(CC(=O)Nc2cccc(Cl)c2C)c1C(=O)OC	inconclusive: 20 µM [inhibitor, single point]
COC(CNC(=O)C1CCCN(S(=O)(=O)c2c(C)noc2/C=C/c2cccs2)C1)OC (stereo not drawn)	inactive
Cc1ccc(S(=O)(=O)N(C)C)cc1NC(=O)COC(=O)c1n[nH]c(=O)c2ccccc12	inconclusive: 5.01 µM [activator, single point]
Cc1ccc(S(=O)(=O)N(C)CC(=O)N2CCN(Cc3ccc4c(c3)OCO4)CC2)cc1	inconclusive: 12.6 µM [activator, partial curve]
COc1cc(CNCc2ccccn2)ccc1OCc1c(Cl)cccc1Cl	active: 14.1 µM
COC(=O)/C=C1/N/C(=N\c2nc(C)cc(C)n2)N(c2cccc(C)c2)C1=O	inconclusive: 15.8 µM [inhibitor, single point]
O=c1[nH]c2ccccc2n1CCC1CCCCC1	inconclusive: 7.94 µM [inhibitor, partial curve]
CCCOc1ccc(-c2c(C(=O)N/N=C/c3ccc(OC)cc3)nnn2-c2nonc2N)cc1	active: 15.8 µM
COc1cc(/C=N/N2CCOCC2)ccc1OCc1ccc(Cl)cc1	inactive
COc1cccc(NC(=O)c2ccc(S(=O)(=O)NCc3cccnc3)cc2)c1	inconclusive: 35.5 µM [activator, single point]
CCOc1ccccc1C(=O)N1CCN(C(c2ccccc2)c2ccccc2)CC1	inconclusive: 35.5 µM [activator, single point]
Clc1ccccc1Cn1c(/C=C/c2ccco2)nc2ccccc21	active: 11.2 µM
Cc1nn2c(N)c(C#N)cnc2c1-c1ccccc1	inconclusive: 35.5 µM [inhibitor, single point]
O=C(O)CCCNc1cc(N2CCN(C(=O)c3ccco3)CC2)c2noc3c2c1C(=O)c1ccccc1-3	inconclusive: 11.2 µM [inhibitor, single point]
O=C(Nc1nnc(SCc2c(Cl)cccc2Cl)s1)c1ccc2ncsc2c1	inactive
Cc1cccc(NC(=O)N(Cc2cc3cc(C)ccc3[nH]c2=O)CC2COCCO2)c1 (stereo not drawn)	inconclusive: 22.4 µM [inhibitor, single point]

SMILES	Potency
CCOC(=O)c1sc(NC(=O)c2cc(-c3ccccc3C)nc3ccccc23)c(C#N)c1C	active: 8.91 µM
O=C(Nc1ccc([N+](=O)[O-])cc1)Nc1ccc(OC(F)F)c(Cl)c1	inconclusive: 7.08 µM [inhibitor, single point]
Cc1nc(NC(=O)c2ccccc2)sc1-c1csc(NCCc2ccccc2)n1	inactive
O=C(Nc1ccc(F)cc1)Nc1sccc1-c1nc2ccccc2s1	inconclusive: 22.4 µM [inhibitor, single point]
Cc1cc(C)c(NC(=O)C(C)c2cccc(C(=O)c3ccccc3)c2)c(C)c1 (stereo not drawn)	inconclusive: 14.1 µM [activator, single point]
COCCSc1nnc(NC(=O)c2ccc3c(c2)OCO3)s1	inconclusive: 5.62 µM [activator, single point]
C[C@H](NC(N)=O)C(=O)OCC(=O)NCc1cccs1	inactive
CCCOc1ccc(/C=N/NC(=O)C2CCCN2S(=O)(=O)c2ccc(Cl)cc2)cc1 (stereo not drawn)	inactive
COc1ccc(/C=C/C(=O)NC(=S)Nc2ccc(Br)cn2)cc1	inconclusive: 6.31 µM [inhibitor, full curve]
Oc1cc(Br)ccc1C=Nc1ccc(N2CCCCC2)cc1	inconclusive: 15.8 µM [inhibitor, single point]
O=c1c2cc(Cl)ccc2nc(-c2ccccc2Cl)n1O	inconclusive: 15.8 µM [inhibitor, single point]
COc1ccccc1C(=O)N1CCN=C1c1ccccc1	inactive
COCC1CCCN(Cc2nc(C(c3ccccc3)c3ccccc3)no2)C1 (stereo not drawn)	inconclusive: 11.2 µM [activator, partial curve]
Cc1cnc(NC(=O)CSc2nnc(-c3ccc(Cl)cc3Cl)n2N)s1	inconclusive: 20 µM [activator, single point]
Cc1sc(NC(=O)c2cc(-c3ccc(Cl)cc3)nc3ccccc23)c(C(N)=O)c1C	inconclusive: 35.5 µM [inhibitor, single point]
Cc1oc2c(Cl)c(Cl)c(O)c(CN(C)C)c2c1C(=O)c1ccc(Cl)cc1	inactive
COc1ccc2nc(NC(C)=O)sc2c1	inactive
Cc1[nH]c2ccccc2c1C(=O)/C=C/c1ccccc1	inconclusive: 35.5 µM [activator, single point]
O=C(CSc1n[nH]c(-c2ccccc2)n1)Nc1ccc(Br)cn1	inconclusive: 10 µM [activator, partial curve, poor fit]
C/C(=N/Nc1nc(-c2ccccc2F)nc2ccccc12)c1ccccc1O	active: 3.16 µM
CSc1cccc(NC(=O)CN(C)S(=O)(=O)c2ccccc2)c1	inconclusive: 11.2 µM [activator, single point]
Cc1ccc(NC2=NCC(=O)N2Cc2ccccc2)c(C)c1	inconclusive: 5.62 µM [activator, single point]

Rewritten bar-delimited: entries from further up.
SMILES | Potency
O=C(Nc1ccc(Nc2ccncc2)cc1)c1ccc([N+](=O)[O-])cc1 | inconclusive: 12.6 µM [inhibitor, single point]
COc1cccc(N(C(=O)c2snc(C(N)=O)c2N)C(C(=O)NCC2CCCO2)c2cccs2)c1 (stereo not drawn) | inconclusive: 11.2 µM [activator, partial curve]

Copied from the results shown for reference:
SMILES	Potency
CCOC(=O)c1sc(NC(=O)c2cc(-c3ccccc3C)nc3ccccc23)c(C#N)c1C	active: 8.91 µM
O=C(Nc1ccc([N+](=O)[O-])cc1)Nc1ccc(OC(F)F)c(Cl)c1	inconclusive: 7.08 µM [inhibitor, single point]
